Results: patent publication US12714102B2, “Use of diaminomethanal carboxylic acid complexes as agricultural spray adjuvants” (priority 2021, dated 2026)

Key:
Assay type in all cases: physicochemical
[1] = Immersion corrosion testing of metals (modified ASTM G 31-72); conditions: Aluminum; 85% by weight in water, no corrosion inhibitor, 45-46° C., 168 hours
[2] = as above; conditions: Mild Steel C1020; 85% by weight in water, no corrosion inhibitor, 45-46° C., 168 hours
[3] = as above; conditions: Stainless Steel 304; 85% by weight in water, no corrosion inhibitor, 45-46° C., 168 hours

Row | Molecule | Corrosion Rate [1] | Corrosion Rate [2] | Corrosion Rate [3]
1 | diaminomethanalethanoate complexes [DAMALEX] | 0.0041 in/yr | 0.1204 in/yr | 0.0001 in/yr
2 | NC(N)=O.O=S(=O)(O)O [AMADS, 1-aminomethanamide dihydrogen tetraoxosulfate] | 0.1947 in/yr | 0.0078 in/yr | 0.0090 in/yr
